According to patent publication US5603943A, “Nasally administrable compositions” (Dott Research Laboratory, priority 1994, dated 1997):
“And” between values parts separate entries of the source, which are not always exact repeats. Equal values may be shown once. This continues a long series; more values of the same kind are listed elsewhere.

What was measured:
Assay type in all cases: in vivo, healthy male adults (human)
[1] = Glucagon blood concentration, nasal powder with hydroxyapatite (Test Example 8); conditions: nasal 1.2 glucagon unit/30 mg, individual cases No. 17-20 in order
Procedure: A nasally administrable composition in powdery form was prepared by formulating glucagon (from hog spleen) as a physiologically active peptide at the rate of 40 mg per composition (1,000 mg) with hydroxyapatite as a carrier having a mean particle size ranging from 40 to 45 μm.
The resulting composition was nasally administered once at a dose of 1.2 glucagon unit/30 mg to three healthy male adults and the blood (2.5 ml) was collected from each of the tested adults prior to administration and then at 5, 10, 15, 20, 30, 45, 60, 90, 120, 150 and 180 minutes after administration. The concentration of the glucagon in each of the collected blood samples was assayed with a standard RIA assay kit.

[2] = Salmon calcitonin blood concentration, nasal powder with magnesium stearate (Test Example 4); conditions: nasal 200 MRC (IU)/25 mg, individual cases No. 8-10 in order
Procedure: A nasally administrable composition in powdery form was prepared by formulating salmon calcitonin as a physiologically active peptide at the rate of 200 MRC (IU) per 25 mg with magnesium stearate as a carrier having a mean particle size ranging from 40 to 45 μm.
(§1) The resulting composition was nasally administered once at a dose of 25 mg to three healthy male adults and the blood (2.5 ml) was collected from each of the tested adults prior to administration and then at 5, 10, 15, 20, 30, 45, 60, 90, 120 and 180 minutes after administration. The concentration of the salmon calcitonin in each -of the collected blood samples was assayed with a standard RIA assay kit.

[3] = Salmon calcitonin blood concentration, nasal powder with calcium carbonate (Test Example 5); conditions: nasal 200 MRC (IU)/25 mg, individual cases No. 11-13 in order
Procedure: A nasally administrable composition in powdery form was prepared by formulating salmon calcitonin as a physiologically active peptide at the rate of 200 MRC (IU) per 25 mg with calcium carbonate as a carrier having a mean particle size ranging from 40 to 45 μm.
as §1, with “of” for “-of”

[4] = Salmon calcitonin blood concentration, nasal powder with aluminum hydroxide (Test Example 6); conditions: nasal 200 MRC (IU)/25 mg, individual cases No. 14-16 in order
Procedure: A nasally administrable composition in powdery form was prepared by formulating salmon calcitonin as a physiologically active peptide at the rate of 200 MRC (IU) per 25 mg with aluminum hydroxide as a carrier having a mean particle size ranging from 40 to 45 μm.
as §1, with “of” for “-of”

Substance: glucagon
- Concentration of glucagon in the blood ([1]; 5 min): 0.073 ng/mL and 0.063 ng/mL and 0.054 ng/mL and 0.097 ng/mL
- Concentration of glucagon in the blood ([1]; 10 min): 0.115 ng/mL and 0.074 ng/mL and 0.079 ng/mL and 0.117 ng/mL
- Concentration of glucagon in the blood ([1]; 15 min): 0.117 ng/mL and 0.085 ng/mL and 0.17 ng/mL and 0.124 ng/mL
- Concentration of glucagon in the blood ([1]; 20 min): 0.097 ng/mL and 0.1 ng/mL and 0.124 ng/mL and 0.121 ng/mL
- Concentration of glucagon in the blood ([1]; 30 min): 0.082 ng/mL and 0.095 ng/mL and 0.086 ng/mL and 0.117 ng/mL
- Concentration of glucagon in the blood ([1]; 45 min): 0.076 ng/mL and 0.098 ng/mL and 0.054 ng/mL and 0.112 ng/mL
- Concentration of glucagon in the blood ([1]; 60 min): 0.063 ng/mL and 0.077 ng/mL and 0.046 ng/mL and 0.106 ng/mL
- Concentration of glucagon in the blood ([1]; 90 min): 0.055 ng/mL and 0.07 ng/mL and 0.029 ng/mL and 0.087 ng/mL
- Concentration of glucagon in the blood ([1]; 120 min): 0.054 ng/mL and 0.073 ng/mL and 0.029 ng/mL and 0.077 ng/mL
- Concentration of glucagon in the blood ([1]; 150 min): 0.058 ng/mL and 0.083 ng/mL and 0.026 ng/mL and 0.071 ng/mL
- Concentration of glucagon in the blood ([1]; 180 min): 0.042 ng/mL and 0.068 ng/mL and 0.027 ng/mL and 0.078 ng/mL

Substance: salmon calcitonin
- Concentration of salmon calcitonin in the blood ([2]; 0 min (predose)): ~ 7 pg/ml
- Concentration of salmon calcitonin in the blood ([2]; 5 min): 60.07 pg/mL and 25.23 pg/mL and 29.77 pg/mL
- Concentration of salmon calcitonin in the blood ([2]; 10 min): 50.35 pg/mL and 16.18 pg/mL and 33.27 pg/mL
- Concentration of salmon calcitonin in the blood ([2]; 15 min): 37.65 pg/mL and 24.43 pg/mL and 41.01 pg/mL
- Concentration of salmon calcitonin in the blood ([2]; 20 min): 34.90 pg/mL and 15.84 pg/mL and 30.80 pg/mL
- Concentration of salmon calcitonin in the blood ([2]; 30 min): 22.22 pg/ml and ~ 7 pg/ml and 16.19 pg/ml
- Concentration of salmon calcitonin in the blood ([2]; 45 min): 16.75 pg/ml and ~ 7 pg/ml and 14.79 pg/ml
- Concentration of salmon calcitonin in the blood ([2]; 60 min): 12.60 pg/ml and ~ 7 pg/ml and 14.15 pg/ml
- Concentration of salmon calcitonin in the blood ([2]; 90 min): ~ 7 pg/ml and 9.42 pg/ml
- Concentration of salmon calcitonin in the blood ([2]; 120 min): ~ 7 pg/ml
- Concentration of salmon calcitonin in the blood ([2]; 180 min): ~ 7 pg/ml
- Concentration of salmon calcitonin in the blood ([3]; 0 min (predose)): ~ 7 pg/ml
- Concentration of salmon calcitonin in the blood ([3]; 5 min): 59.30 pg/mL and 40.60 pg/mL and 73.17 pg/mL
- Concentration of salmon calcitonin in the blood ([3]; 10 min): 71.14 pg/mL and 121.74 pg/mL and 70.15 pg/mL
- Concentration of salmon calcitonin in the blood ([3]; 15 min): 83.39 pg/mL and 131.95 pg/mL and 66.30 pg/mL
- Concentration of salmon calcitonin in the blood ([3]; 20 min): 76.26 pg/mL and 113.20 pg/mL and 65.64 pg/mL
- Concentration of salmon calcitonin in the blood ([3]; 30 min): 44.54 pg/mL and 46.19 pg/mL and 46.81 pg/mL
- Concentration of salmon calcitonin in the blood ([3]; 45 min): 25.50 pg/mL and 38.65 pg/mL and 27.43 pg/mL
- Concentration of salmon calcitonin in the blood ([3]; 60 min): 13.99 pg/mL and 13.39 pg/mL and 16.83 pg/mL
- Concentration of salmon calcitonin in the blood ([3]; 90 min): 13.33 pg/mL and 16.00 pg/mL and 14.83 pg/mL
- Concentration of salmon calcitonin in the blood ([3]; 120 min): 7.88 pg/mL and 12.02 pg/mL and 13.44 pg/mL
- Concentration of salmon calcitonin in the blood ([3]; 180 min): 7.54 pg/mL and 8.09 pg/mL and 8.98 pg/mL
- Concentration of salmon calcitonin in the blood ([4]; 90 min): ~ 7 pg/ml (2×) and 8.35 pg/ml
- Concentration of salmon calcitonin in the blood ([4]; 120 min): ~ 7 pg/ml
- Concentration of salmon calcitonin in the blood ([4]; 180 min): ~ 7 pg/ml (2×) and 8.26 pg/ml
